Measurements reported in PubChem BioAssay AID662 (National Center for Advancing Translational Sciences (NCATS), 2007).
Where “and” joins values, the source holds several entries; their conditions need not be identical. Identical values can stand only once. Some of the results follow. Further columns of the screen follow, without active or inactive calls. The list favours compounds with an active or inconclusive main result. Words in brackets tell the shape of the fitted curve; partial curves, single points and poor fits give uncertain potencies.

assay: Cell signaling CRE-BLA (Fsk stim); conditions: CHO CRE-bla reporter (cAMP response element driving beta-lactamase), forskolin EC10, beta-lactamase ratio; measured here: 460 nm blue channel
Summary of the method: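 CRE-bla CHO reporter cells treated with compound titration plus EC10 NKH 477 (water-soluble forskolin), incubated 3 h at 37 °C; CCF4 loading 2 h at room temperature, 460/530 nm emission ratio read, AC50 values derived for positive or negative modulators.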

SMILES	AC50
O=S(=O)(Nc1cccc(-c2nc3cccnc3s2)c1)c1ccc2c(c1)OCCO2	3.16 µM [rising, partial curve]
O=C(Nc1cc(C(F)(F)F)ccc1Cl)C1CCN(c2nnc(-n3cccc3)s2)CC1	12.6 µM [falling, single point]
Cc1cccc(-n2c(SCc3cc(=O)n4ccsc4n3)nc3ccccc32)c1	1.26 µM [rising, partial curve]
O=S(=O)(c1cccc(-c2nnc(SCc3nc4ccccc4s3)o2)c1)N1CCOCC1	12.6 µM [rising, single point]
O=C(Nc1nnc(C2CCCC2)s1)C1CCN(S(=O)(=O)c2ccc(Cl)cc2)CC1	0.00398 µM [falling, full curve, poor fit]
COC(=O)c1[nH]c2cc(OC)c(OC)cc2c1NC(=O)CN1CCN(Cc2ccccc2)CC1	12.6 µM [rising, single point]
Cn1c(=O)c2c(SCc3cccnc3)nc(C3CC3)nc2n(C)c1=O	3.98 µM [rising, full curve]
COc1cc(-c2nc(-c3ccc(Br)o3)no2)cc(OC)c1OC	2.51 µM [rising, full curve]
CCOC(=O)c1oc2ccccc2c1CSc1nnnn1-c1ccc(OC)cc1	1.26 µM [rising, full curve]
O=C(Nc1cccnc1)C1CCCN1S(=O)(=O)c1ccc(Cl)c(Cl)c1 (configuration not stated)	0.00398 µM [falling, full curve, poor fit]
CCN1CCN(Cc2nc3c(c(=O)n(C)c(=O)n3C)n2CCc2ccccc2)CC1	10 µM [rising, single point]
CCCCCn1c(=NC(C)=O)c(C#N)cc2c(=O)n3ccccc3nc21	2.51 µM [rising, full curve]
c1ccc(CCNc2ncnc3nc[nH]c23)cc1	12.6 µM [falling, partial curve]
COc1ccc2nc(NC(=O)C3CCCN(S(=O)(=O)c4c(C)noc4C)C3)sc2c1 (configuration not stated)	12.6 µM [rising, partial curve]
CCOc1cc(N2CCOCC2)c(OCC)cc1NC(=O)c1nc2nccc(C)n2n1	12.6 µM [rising, single point]
COc1ccc(-c2noc(-c3ccccc3C(=O)Nc3cccnc3)n2)cc1OC	10 µM [rising, partial curve]
COc1cccc(CNC(=O)C2CCCN(S(C)(=O)=O)C2)c1 (configuration not stated)	2.51 µM [falling, full curve]
COc1cccc(Nc2ncc3ncc(=O)n(C[C@H]4CCCO4)c3n2)c1	0.794 µM [falling, full curve]
COc1cc(OC)cc(-c2nc3nc(C)c(CCC(=O)O)c(C)n3n2)c1	0.1 µM [falling, full curve]
CCCCCOC(=O)c1cc(=O)[nH]c2ccccc12	12.6 µM [rising, single point]
CC(=O)COc1ccc2c3c(c(=O)oc2c1)CCCC3	10 µM [rising, single point]
CCOC(=O)c1sc(N)c(C#N)c1COC(=O)CNC(=O)c1ccccc1	20 µM [rising, single point]
COC(=O)c1ccc(OCC2c3cc(OC)c(OC)cc3CCN2C(=O)C2CC2)cc1 (configuration not stated)	3.98 µM [rising, partial curve]

SMILES	AC50
COc1ccc(CN(Cc2cc3ccc(C)cc3[nH]c2=O)Cc2nnnn2C2CCCC2)cc1	25.1 µM [falling, single point]
CC(=O)N1CCc2c(sc(NC(=O)c3ccc4c(c3)OCCO4)c2C#N)C1	12.6 µM [rising, single point]
CN(C)c1ccc(-c2cc(-n3ccnc3)ncn2)cc1	10 µM [rising, partial curve]
COc1ccc(OC)c(-n2cc3c(=O)n(C)c(=O)n(C)c3c2)c1	12.6 µM [rising, single point]
COc1cccc(-c2nc(N3CCN(C)CC3)c3ccccc3n2)c1	7.94 µM [rising, partial curve]
CNC1=C(Br)C(=O)c2ccncc2C1=O	3.98 µM [falling, partial curve]
COc1ccc(C(=O)N2c3ccc(F)cc3CCC2C)cc1OC (configuration not stated)	25.1 µM [rising, single point]
COc1cc(SC)ccc1C(=O)Nc1ccc2c(c1)CCN2S(C)(=O)=O	12.6 µM [rising, partial curve]
Cc1nn(S(=O)(=O)N(C)C)c(C)c1CN1C(=O)c2ccccc2C1=O	3.16 µM [rising, single point]
O=C1c2cccnc2C(O)N1Cc1ccc(F)cc1 (configuration not stated)	31.6 µM [falling, single point]
CCn1cc(C(=O)NCc2cccs2)c(=O)c2ccc(C)nc21	3.98 µM [rising, partial curve]
O=S(c1ccccc1)c1ccc2nnnn2n1 (configuration not stated)	12.6 µM [falling, partial curve]
O=C(CCc1ccccc1)Nc1nc2n(n1)C(c1ccc(Cl)cc1)CC(=O)N2 (configuration not stated)	3.16 µM [falling, single point]
CCn1c(=N)c(C(=O)OC)cc2c(=O)n3ccccc3nc21	3.16 µM [rising, partial curve]
Cc1cc(=O)oc2c(CN3CCOCC3)c(O)ccc12	12.6 µM [rising, partial curve]
Cc1ccc(NC(=O)c2cc(N(C)C)ccc2[P+](=O)O)cc1	0.316 µM [falling, full curve]
Cc1[nH]c2ccccc2c(=O)c1CN1CCCCC1	0.00316 µM [falling, full curve, poor fit]
N[C@@H](C(=O)O)c1ccc(C(=O)O)cc1	12.6 µM [rising, single point]
O=C(c1ccccc1)c1ccc2nc(N3CCCCC3)c3nncn3c2c1	12.6 µM [rising, partial curve]
CCCc1nc(SCc2ccccn2)c2c(=O)n(C)c(=O)n(C)c2n1	6.31 µM [rising, partial curve]
COc1ccc(S(=O)(=O)N2CCN(Cc3ccccc3)CC2)cc1	0.126 µM [rising, full curve]
O=S(=O)(CCSc1nc2ccccc2o1)c1nc2ccccc2s1	5.01 µM [falling, partial curve]
C[C@@H]1CNCCN1S(=O)(=O)c1cccc2cnccc12	10 µM [falling, full curve] and 15.8 µM [falling, partial curve] and 7.94 µM [falling, full curve]

SMILES	AC50
COc1ccc(/C=N/n2c(SC)nnc2-c2ccccc2)c(OC)c1OC	12.6 µM [rising, partial curve]
O=C(O)c1cc2ccccc2c(Cc2cc3ccccc3c(C(=O)O)c2O)c1O (tested in a mixture with another compound)	12.6 µM [falling, single point]
CN(C)c1ccnc(NCc2ccccc2)c1C#N	12.6 µM [rising, partial curve]
O=S(=O)(Nc1ccc2c(c1)OCCO2)c1ccc2oc3ccccc3c2c1	25.1 µM [falling, single point]
Cc1ccc(C)c(-n2c(Cc3cc(=O)[nH]c(=O)[nH]3)nnc2SCC(=O)NCc2ccco2)c1	0.501 µM [falling, partial curve]
COc1cc(-c2nnc(SCc3ccccc3Cl)o2)cc(OC)c1OC	6.31 µM [rising, partial curve]
CCn1c(SCC(=O)Nc2nnc(C)s2)nc2c(c1=O)SC(C)C2 (configuration not stated)	10 µM [rising, partial curve]
COc1ccc(CCn2c(=N)c(C(=O)N3CCN(C)CC3)cc3c(=O)n4ccccc4nc32)cc1	12.6 µM [rising, partial curve]
Cc1cnc(CNc2cc(-c3ccc4c(c3)OCO4)ncn2)cn1	12.6 µM [rising, partial curve]
O=C(O)c1cc(-c2cccs2)nc2cc3c(cc12)OCCO3	10 µM [rising, single point]
Cc1nn(-c2ccccc2)c(C)c1C(=O)OCC(=O)Nc1ccc2c(c1)OCO2	25.1 µM [rising, single point]
COCCn1c(=O)cnc2cnc(N(C)C)nc21	12.6 µM [rising, partial curve]
COC(=O)NCC(c1cccnc1)N1CCOCC1 (configuration not stated)	12.6 µM [rising, partial curve]
COc1ccccc1-n1cnc2cc(NCc3ccco3)ccc21	12.6 µM [rising, partial curve]
Cc1cnnc2c1-c1nonc1CC2	0.00316 µM [falling, full curve, poor fit]
OC1(Cc2ccn[nH]2)CCCCC1	2.51 µM [rising, full curve, poor fit]
C=CC(C)n1c(Br)nc2c1c(=O)[nH]c(=O)n2C (configuration not stated)	15.8 µM [rising, partial curve, poor fit]
COC(=O)c1sc(N)c(C(=O)OC)c1COC(=O)c1c(C)noc1C	5.01 µM [rising, partial curve]
Cc1cnc(CNc2nc(-c3c(C)noc3C)nc3ccccc23)cn1	10 µM [rising, partial curve]
Clc1ccc(-c2nnc3sc(-c4ccc(Br)o4)nn23)c(Cl)c1	3.16 µM [falling, full curve]
CCCCCCn1c(CN2CCN(C(=O)OCC)CC2)nc2c1c(=O)n(C)c(=O)n2C	5.01 µM [falling, partial curve]
